Laboratory results as given in patent publication US20150366877A1, “METHODS OF TREATMENT OF HUMAN CYTOMEGALOVIRUS INFECTION AND DISEASES WITH BROMODOMAIN INHIBITORS” (Washington University, priority 2013, published 2015).

Tested on: HCMV
Assay: Anti-HCMV activity in cultured primary human fibroblasts
Type: cell-based, Human cytomegalovirus
Text: This example illustrates anti-HCMV activity of bromodomain inhibitors in cultured primary human fibroblasts.

For `CCNC(=O)C[C@@H]1N=C(c2ccc(Cl)cc2)c2cc(OC)ccc2-n2c(C)nnc21` [I-BET762, 2-[(4S)-6-(4-chlorophenyl)-8-methoxy-1-methyl-4H-[1,2,4]triazolo[4,3-a][1,4]benzodiazepine-4-yl]-N-ethylacetamide], the “Concentration to inhibit HCMV replication” value was 0.781 to 1.562 µM.
